PubChem BioAssay AID1259425 – University of Nebraska Medical Center | 2018
The deposit covers about 14,000 reagents; below is a part drawn at random. Not given: the time to read-out.

Test: 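Find knockdowns that reproduce the gene expression pattern seen when KSR1 is lost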 (primary screen)
System: HCT116 human colon cancer cells
Reagents: siRNA pool against human genes, 50 nM siRNA
Detection: 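mRNA of six signature genes measured together by branched-DNA assay after 50 nM siRNA pool, blank removed, divided by geometric mean of two housekeeping genes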
Direction: BNIP3L mRNA: higher = more BNIP3L transcript after knockdown; NDRG1 mRNA: higher = more NDRG1 transcript after knockdown; BNIP3 mRNA: higher = more BNIP3 transcript after knockdown; ALDOC mRNA: higher = more ALDOC transcript after knockdown; ACSL5 mRNA: higher = more ACSL5 transcript after knockdown

| gene symbol | BNIP3L mRNA, set 1 | NDRG1 mRNA, set 1 | BNIP3 mRNA, set 1 | ALDOC mRNA, set 1 | ACSL5 mRNA, set 1 |
| --- | --- | --- | --- | --- | --- |
| PTPRS (protein tyrosine phosphatase receptor type S) | 0.118 | 0.231 | 0.236 | 0.0203 | 0.127 |
| BEST3 (bestrophin 3) | 0.139 | 0.326 | 0.293 | 0.0578 | 0.142 |
| RSAD2 (radical S-adenosyl methionine domain containing 2) | 0.115 | 0.161 | 0.407 | 0.0242 | 0.214 |
| CYP2A13 (cytochrome P450 family 2 subfamily A member 13) | 0.0918 | 0.108 | 0.257 | 0.0115 | 0.169 |
| DCLRE1A (DNA cross-link repair 1A) | 0.0631 | 0.127 | 0.324 | 0.011 | 0.204 |
| RAVER2 (ribonucleoprotein, PTB binding 2) | 0.137 | 0.196 | 0.389 | 0.03 | 0.188 |
| IGSF1 (immunoglobulin superfamily member 1) | 0.0581 | 0.208 | 0.305 | 0.00858 | 0.132 |
| ACP1 (acid phosphatase 1) | 0.0937 | 0.248 | 0.225 | 0.0243 | 0.18 |
| HCAR1 (hydroxycarboxylic acid receptor 1) | 0.133 | 0.549 | 0.332 | 0.014 | 0.172 |
| STOX2 (storkhead box 2) | 0.0903 | 0.115 | 0.338 | 0.0311 | 0.148 |
| BID (BH3 interacting domain death agonist) | 0.0644 | 0.196 | 0.227 | 0.0224 | 0.0743 |
| CNOT9 (CCR4-NOT transcription complex subunit 9) | 0.232 | 0.695 | 0.313 | 0.0125 | 0.116 |

Reformatted: 2 of the entries above.
gene symbol | BNIP3L mRNA, set 1 | NDRG1 mRNA, set 1 | BNIP3 mRNA, set 1 | ALDOC mRNA, set 1 | ACSL5 mRNA, set 1
RAVER2 (ribonucleoprotein, PTB binding 2) | 0.137 | 0.196 | 0.389 | 0.03 | 0.188
IGSF1 (immunoglobulin superfamily member 1) | 0.0581 | 0.208 | 0.305 | 0.00858 | 0.132

Next entries follow.
| gene symbol | BNIP3L mRNA, set 1 | NDRG1 mRNA, set 1 | BNIP3 mRNA, set 1 | ALDOC mRNA, set 1 | ACSL5 mRNA, set 1 |
| --- | --- | --- | --- | --- | --- |
| EIF3E (eukaryotic translation initiation factor 3 subunit E) | 0.0817 | 0.134 | 0.288 | 0.00633 | 0.183 |
| IL33R (interleukin 33 receptor) | 0.153 | 0.265 | 0.267 | 0.0455 | 0.1 |
| GABPB1 (GA binding protein transcription factor subunit beta 1) | 0.089 | 0.219 | 0.313 | 0.0345 | 0.129 |
| RSRP1 (arginine and serine rich protein 1) | 0.0707 | 0.473 | 0.241 | 0.0146 | 0.429 |
| ITM2A (integral membrane protein 2A) | 0.079 | 0.305 | 0.355 | 0.0575 | 0.451 |
| EGR1 (early growth response 1) | 0.0726 | 0.0721 | 0.255 | 0.0246 | 0.146 |
| HMGN5 (high mobility group nucleosome binding domain 5) | 0.142 | 0.234 | 0.443 | 0.073 | 0.582 |
| GPR157 (G protein-coupled receptor 157) | 0.134 | 0.308 | 0.318 | 0.0283 | 0.117 |
